According to patent publication US20180282397A1:
No constants are given. Whether binding was seen depends on the method and setting. Some results given as binding are weak or reduced against the parent protein; the word gives no strength.

Legend:
K-Ras(G12V)-GTP (human) [1] = assay: radioactive in vitro pull-down
K-Ras(G12V)-GTP (human) [2] = assay: radioactive in vitro pull-down of [35S]Met-labelled RasIn1 on bead-immobilised target [b]
K-Ras(G12V)-GTP (human) [3] = assay: radioactive in vitro pull-down of [35S]Met-labelled RasIn1 on bead-immobilised target [a]
K-Ras(G12V)-GTP (human) [4] = assay: radioactive in vitro pull-down of [35S]-labelled RasIn1 and point mutants on immobilised K-Ras-GTP [a]

Measured: binding

B1: RasIn1 (designed binder)
chain: MLEVKEASPTSIQISWGPVFSAYSRYYRITYGETGGNSPVQEFTVPGSKSAATISGLKPGVDYTITVYAVTFRWPMPRLVRPISINYRT
binds: all assays above
